The values that follow come from PMC9561260.

Sequences of proteins named here, by UniProt entry; tags and fusion partners are left off.
UniProt O09106: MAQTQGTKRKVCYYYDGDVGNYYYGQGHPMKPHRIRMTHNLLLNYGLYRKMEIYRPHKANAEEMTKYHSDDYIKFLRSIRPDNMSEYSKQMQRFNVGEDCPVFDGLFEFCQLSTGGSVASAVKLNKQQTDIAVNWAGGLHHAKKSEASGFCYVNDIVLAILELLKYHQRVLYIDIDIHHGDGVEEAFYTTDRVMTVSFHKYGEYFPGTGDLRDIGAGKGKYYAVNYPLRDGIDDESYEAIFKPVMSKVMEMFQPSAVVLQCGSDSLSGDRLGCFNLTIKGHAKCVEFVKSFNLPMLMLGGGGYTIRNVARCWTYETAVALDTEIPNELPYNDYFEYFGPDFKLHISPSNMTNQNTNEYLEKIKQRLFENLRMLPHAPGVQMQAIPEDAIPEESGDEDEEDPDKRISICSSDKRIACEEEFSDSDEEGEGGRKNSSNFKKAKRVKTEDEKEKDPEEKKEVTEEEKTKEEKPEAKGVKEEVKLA

First the molecules themselves.
B1: Cdyl (protein, UniProt Q9WTK2 1-593)
chain: MGIGNSQPNSQEAQLCTLPEKAEQPTDDNTCQQNNVVPATVSEPDQASPAIQDAETQVESIVDKRKNKKGKTEYLVRWKGYDSEDDTWEPEQHLVNCEEYIHDFNRRHNERQKEGSLARASRASPSNARKQISRSTHSTLSKTNSKALVVGKDHESKSSQLLAASQKFRKNPAPSLANRKNMDLAKSGIKILVPKSPVKGRTSVDGFQGESPEKLDPVDQGAEDTVAPEVTAEKPTGALLGPGAERARMGSRPRIHPLVPQVSGPVTAAMATGLAVNGKGTSPFMDALAANGTVTIQTSVTGVTAGKRKFIDDRRDQPFDKRLRFSVRQTESAYRYRDIVVRKQDGFTHILLSTKSSENNSLNPEVMKEVQSALSTAAADDSKLVLLSAVGSVFCCGLDFIYFIRRLTDDRKRESTKMADAIRNFVNTFIQFKKPIIVAVNGPAIGLGASILPLCDVVWANEKAWFQTPYTTFGQSPDGCSTVMFPKIMGGASANEMLFSGRKLTAQEACGKGLVSQVFWPGTFTQEVMVRIKELASCNPVVLEESKALVRCNMKMELEQANERECEVLKKIWGSAQGMDSMLKYLQRKIDEF
B2: Rest (protein, UniProt Q8VIG1 1-1082)
chain: MATQVMGQSSGGGSLFNNSANMGMALTNDMYDLHELSKAELAAPQLIMLANVALTGEASGSCCDYLVGEERQMAELMPVGDNHFSESEGEGLEESADLKGLENMELGSLELSAVEPQPVFEASAAPEIYSANKDPAPETPVAEDKCRSSKAKPFRCKPCQYEAESEEQFVHHIRIHSAKKFFVEESAEKQAKAWESGSSPAEEGEFSKGPIRCDRCGYNTNRYDHYMAHLKHHLRAGENERIYKCIICTYTTVSEYHWRKHLRNHFPRKVYTCSKCNYFSDRKNNYVQHVRTHTGERPYKCELCPYSSSQKTHLTRHMRTHSGEKPFKCDQCNYVASNQHEVTRHARQVHNGPKPLNCPHCDYKTADRSNFKKHVELHVNPRQFNCPVCDYAASKKCNLQYHFKSKHPTCPSKTMDVSKVKLKKTKKREADLLNNAVSNEKMENEQTKTKGDVSGKKNEKPVKAVGKDASKEKKPGSSVSVVQVTTRTRKSAVAAETKAAEVKHTDGQTGNNPEKPCKAKKNKRKKDAEAHPSEEPVNEGPVTKKKKKSECKSKIGTNVPKGGGRAEERPGVKKQSASLKKGTKKTPPKTKTSKKGGKLAPKGMGQTEPSSGALAQVGVSPDPALIQAEVTGSGSSQTELPSPMDIAKSEPAQMEVSLTGPPPVEPAQMEPSPAKPPQVEAPTYPQPPQRGPAPPTGPAPPTGPAPPTEPAPPTGLAEMEPSPTEPSQKEPPPSMEPPCPEELPQAEPPPMEDCQKELPSPVEPAQIEVAQTAPTQVQEEPPPVSEPPRVKPTKRSSLRKDRAEKELSLLSEMARQEQVLMGVGLVPVRDSKLLKGNKSAQDPPAPPSPSPKGNSREETPKDQEMVSDGEGTIVFPLKKGGPEEAGESPAELAALKESARVSSSEQNSAMPEGGASHSKCQTGSSGLCDVDTEQKTDTVPMKDSAAEPVSPPTPTVDRDAGSPAVVASPPITLAENESQEIDEDEGIHSHDGSDLSDNMSEGSDDSGLHGARPTPPEATSKNGKAGLAGKVTEGEFVCIFCDRSFRKEKDYSKHLNRHLVNVYFLEEAAEEQEEQEEREEQE
B3: Hltf (protein, UniProt Q6PCN7 1-1003)
chain: MSYTFTRGPVWKYSQSVQYGSHENIPRLSYSTFLPHFEFQDIIPPDDFLTSDEEQDLVLFGTMRGQVVGLRYYTGVVNNNEMVALQREPNNPYDKNAIKVNNVNGNQVGHIKREIAAAVAYIMDNKLAQVEGVVPFGASNTFTMPLYMTFWGKEENRNVVLEQLKKHGFKLGPTPKTLGSSLENAWGSGRAGPSYSRPAHVAVQMTTDQLKTEFDKLFEDLKEDDRTVEMEPAEAIETPLLPHQKQALAWMIARENSKELPPFWEQRNDLYYNTITNFSVKERPENVHGGILADDMGLGKTLTAIAVILTNFDDGRPLLSKRGKKNHPGKEYKDETIKRRGSNMDKKEDGHSESSTCGEEPSISGTPEKSSCTLSQLSSVCPKRRKISVQYIESSDSEEIETSELPQKMKGKLKNVQLNTKSRVKGSSKVKEDSKFALTFFASATQRKMLKKGMSMMECSEACDTGERTRATLIICPLSVLSNWIDQFGQHVKSEVHLNFYVYYGPDRIRDSAWLSKQDIILTTYNILTHDYGTKDDSPLHSIKWLRVILDEGHAIRNPNAQQTKAVLELEAERRWVLTGTPIQNSLKDLWSLLSFLKLKPFIDREWWYRIIQRPVTTGDEGGLRRLQSLIKNITLRRTKTSKIKGKPVLELPERKVFIQHITLSEEERKIYQSVKNEGKAAIGRYFTEGTVLAHYADVLGLLLRLRQICCHTHLLTNGMSSSGPSRSDTPEELRKMLIEKMKIILSSGSDEECAICLDSLTFPVITHCAHVFCKPCICQVIHSEQPHAKCPLCRNEIHGDNLLECPPEELACDSDKESSMEWKSSSKINALMHALIELRTKDPNIKSLVVSQFTTFLSLIETPLKASGFVFTRLDGSMAQKKRVESIQRFQNTEAGSPTIMLLSLKAGGVGLNLCAASRVFLMDPAWNPAAEDQCFDRCHRLGQKQEVIITKFIVKDSVEENMLKIQNTKRDLAAGAFGTKKTDANDMKQAKINEIRTLIDL

Results are given in words; binding and its absence hold for the method and conditions named. Binding seen in cells or lysates may run through a third protein. Some entries that bind do so weakly or less than the wild type. Where a sequence is shown, tags or fusion partners need not be part of it.

The experiment has as its target T1, 2×HA-3×FLAG-Eya1 (Eya1^HA-FLAG knockin) (mouse) (UniProt P97767).
T1 sequence: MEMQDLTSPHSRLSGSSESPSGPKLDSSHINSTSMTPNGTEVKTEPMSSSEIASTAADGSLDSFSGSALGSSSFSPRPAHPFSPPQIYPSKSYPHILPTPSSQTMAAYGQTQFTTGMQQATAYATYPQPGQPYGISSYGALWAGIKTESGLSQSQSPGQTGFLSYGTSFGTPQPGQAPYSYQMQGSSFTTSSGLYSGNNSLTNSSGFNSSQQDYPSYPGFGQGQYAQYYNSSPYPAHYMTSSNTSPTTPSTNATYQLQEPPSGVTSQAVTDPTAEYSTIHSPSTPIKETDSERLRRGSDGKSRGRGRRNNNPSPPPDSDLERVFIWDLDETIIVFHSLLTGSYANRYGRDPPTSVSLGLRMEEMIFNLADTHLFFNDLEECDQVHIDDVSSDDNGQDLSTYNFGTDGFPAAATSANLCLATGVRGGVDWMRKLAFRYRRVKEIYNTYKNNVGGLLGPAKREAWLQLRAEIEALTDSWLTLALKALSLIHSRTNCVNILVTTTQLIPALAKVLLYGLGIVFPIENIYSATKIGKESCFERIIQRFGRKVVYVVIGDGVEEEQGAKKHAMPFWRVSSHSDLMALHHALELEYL
Kind of experiment: co-IP; lysate of E14.5 Eya1^HA-FLAG kidneys on anti-FLAG M2 beads overnight; washed 4 times with IP buffer with 0.1% detergent; western blot. (In general: Immunoblotting shows a protein as a band on a membrane.)
As to Hdac1 (from UniProt O09106 1-482), the binding entry is “binds”.
In the case of B1 it was “binds”.
Under B2 stands “binds”; under B3, “binds”.
